# In the supplement of paper PMC10849652:
# Chains of the proteins cited; added tags and fusions are not shown. Lines headed by an entry give the natural chain unless they say otherwise; changes in a name come on top.
# UniProt P50570: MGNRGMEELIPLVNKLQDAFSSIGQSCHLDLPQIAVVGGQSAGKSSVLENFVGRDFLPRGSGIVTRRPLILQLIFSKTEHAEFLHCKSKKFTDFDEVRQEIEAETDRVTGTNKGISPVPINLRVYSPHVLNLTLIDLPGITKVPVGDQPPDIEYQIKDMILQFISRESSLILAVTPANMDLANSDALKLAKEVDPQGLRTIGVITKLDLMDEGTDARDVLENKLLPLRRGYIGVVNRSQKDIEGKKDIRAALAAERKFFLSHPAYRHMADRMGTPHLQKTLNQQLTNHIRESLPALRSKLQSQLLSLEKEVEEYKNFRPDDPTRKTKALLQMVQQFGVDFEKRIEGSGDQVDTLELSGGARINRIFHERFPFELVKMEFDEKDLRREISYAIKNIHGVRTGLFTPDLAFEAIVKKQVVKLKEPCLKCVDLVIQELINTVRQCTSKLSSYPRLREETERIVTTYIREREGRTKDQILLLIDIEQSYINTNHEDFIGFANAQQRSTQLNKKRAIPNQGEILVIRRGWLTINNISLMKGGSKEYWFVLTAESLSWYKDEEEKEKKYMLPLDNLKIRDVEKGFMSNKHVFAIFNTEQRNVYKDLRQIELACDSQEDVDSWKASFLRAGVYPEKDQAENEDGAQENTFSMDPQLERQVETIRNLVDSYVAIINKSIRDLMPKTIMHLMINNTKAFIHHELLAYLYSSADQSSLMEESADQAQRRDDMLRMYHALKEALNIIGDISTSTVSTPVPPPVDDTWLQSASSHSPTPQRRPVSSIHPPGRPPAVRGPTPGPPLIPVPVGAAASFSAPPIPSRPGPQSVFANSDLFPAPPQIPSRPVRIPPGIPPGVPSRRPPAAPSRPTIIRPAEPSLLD
# UniProt Q13011: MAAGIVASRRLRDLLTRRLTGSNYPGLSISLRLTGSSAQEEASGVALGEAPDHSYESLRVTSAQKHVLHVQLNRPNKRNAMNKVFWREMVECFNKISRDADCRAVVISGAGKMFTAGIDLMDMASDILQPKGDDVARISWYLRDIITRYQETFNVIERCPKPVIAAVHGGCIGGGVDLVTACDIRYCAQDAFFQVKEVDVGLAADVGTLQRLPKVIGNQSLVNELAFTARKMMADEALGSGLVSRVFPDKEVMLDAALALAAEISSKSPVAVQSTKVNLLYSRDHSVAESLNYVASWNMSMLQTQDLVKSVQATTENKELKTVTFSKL
# UniProt O00429, whole entry, looked up: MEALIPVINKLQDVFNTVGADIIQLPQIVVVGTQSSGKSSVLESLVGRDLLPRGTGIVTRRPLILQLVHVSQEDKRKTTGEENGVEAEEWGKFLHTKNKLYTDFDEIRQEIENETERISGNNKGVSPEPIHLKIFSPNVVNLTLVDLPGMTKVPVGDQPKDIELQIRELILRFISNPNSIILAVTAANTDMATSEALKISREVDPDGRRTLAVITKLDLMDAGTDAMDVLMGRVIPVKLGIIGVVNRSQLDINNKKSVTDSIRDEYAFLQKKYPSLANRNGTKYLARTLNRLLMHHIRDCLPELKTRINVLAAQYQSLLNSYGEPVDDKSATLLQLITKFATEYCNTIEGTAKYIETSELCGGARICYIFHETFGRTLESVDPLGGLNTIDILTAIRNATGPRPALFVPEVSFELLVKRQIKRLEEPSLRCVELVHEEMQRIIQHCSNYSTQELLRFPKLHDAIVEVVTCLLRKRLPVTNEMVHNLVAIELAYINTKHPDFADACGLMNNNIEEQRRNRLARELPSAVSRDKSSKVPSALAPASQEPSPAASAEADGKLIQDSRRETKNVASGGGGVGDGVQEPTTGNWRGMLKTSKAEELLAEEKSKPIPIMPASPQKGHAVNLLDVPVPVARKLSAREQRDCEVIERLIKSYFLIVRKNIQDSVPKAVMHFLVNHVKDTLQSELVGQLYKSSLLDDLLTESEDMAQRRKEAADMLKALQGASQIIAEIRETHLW
# UniProt Q9P2X0: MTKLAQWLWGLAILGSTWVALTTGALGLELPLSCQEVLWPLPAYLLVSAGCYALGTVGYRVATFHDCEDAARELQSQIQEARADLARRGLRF
# UniProt Q96G46: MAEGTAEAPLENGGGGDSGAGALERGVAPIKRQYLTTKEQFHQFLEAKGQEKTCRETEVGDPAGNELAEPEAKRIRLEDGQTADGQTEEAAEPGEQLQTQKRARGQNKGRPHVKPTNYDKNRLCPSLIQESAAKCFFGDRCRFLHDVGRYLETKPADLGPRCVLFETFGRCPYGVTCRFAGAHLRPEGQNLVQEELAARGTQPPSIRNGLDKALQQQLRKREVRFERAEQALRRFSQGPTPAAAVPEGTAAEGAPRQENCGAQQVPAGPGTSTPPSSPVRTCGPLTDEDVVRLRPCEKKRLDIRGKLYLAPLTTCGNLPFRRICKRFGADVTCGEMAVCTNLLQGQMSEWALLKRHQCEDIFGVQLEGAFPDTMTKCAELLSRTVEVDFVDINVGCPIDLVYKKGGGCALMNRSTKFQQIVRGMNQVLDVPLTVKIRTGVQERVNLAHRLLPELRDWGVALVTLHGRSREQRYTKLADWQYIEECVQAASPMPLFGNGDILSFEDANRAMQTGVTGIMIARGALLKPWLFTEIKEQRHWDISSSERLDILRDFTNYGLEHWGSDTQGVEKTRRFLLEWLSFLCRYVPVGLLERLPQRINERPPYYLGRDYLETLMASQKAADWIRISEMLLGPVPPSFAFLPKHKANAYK
# UniProt Q96EV8: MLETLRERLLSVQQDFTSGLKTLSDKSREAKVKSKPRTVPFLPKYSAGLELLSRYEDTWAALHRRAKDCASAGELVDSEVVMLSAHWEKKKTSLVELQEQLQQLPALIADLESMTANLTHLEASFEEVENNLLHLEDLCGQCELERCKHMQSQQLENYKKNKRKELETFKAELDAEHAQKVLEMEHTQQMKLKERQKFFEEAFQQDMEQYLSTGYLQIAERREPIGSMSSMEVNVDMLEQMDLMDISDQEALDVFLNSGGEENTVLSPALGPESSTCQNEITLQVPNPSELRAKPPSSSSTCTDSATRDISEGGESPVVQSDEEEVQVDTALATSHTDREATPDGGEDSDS
# UniProt Q9NXW2: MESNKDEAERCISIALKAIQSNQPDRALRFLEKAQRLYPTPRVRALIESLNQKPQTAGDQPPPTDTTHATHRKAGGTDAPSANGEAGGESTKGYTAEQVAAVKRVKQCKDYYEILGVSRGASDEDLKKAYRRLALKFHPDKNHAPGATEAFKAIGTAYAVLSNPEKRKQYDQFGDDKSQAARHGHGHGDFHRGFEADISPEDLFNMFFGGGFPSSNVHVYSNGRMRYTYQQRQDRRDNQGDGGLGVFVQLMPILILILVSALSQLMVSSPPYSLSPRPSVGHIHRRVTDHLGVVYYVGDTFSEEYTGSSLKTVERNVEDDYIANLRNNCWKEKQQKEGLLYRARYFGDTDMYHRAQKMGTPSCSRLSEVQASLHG
# UniProt P23919: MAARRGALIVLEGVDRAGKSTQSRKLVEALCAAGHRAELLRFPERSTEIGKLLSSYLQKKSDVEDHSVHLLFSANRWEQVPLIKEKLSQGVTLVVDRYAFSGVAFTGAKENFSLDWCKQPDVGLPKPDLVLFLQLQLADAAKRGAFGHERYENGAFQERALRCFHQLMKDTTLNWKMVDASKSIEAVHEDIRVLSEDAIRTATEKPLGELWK
# UniProt Q96FX2: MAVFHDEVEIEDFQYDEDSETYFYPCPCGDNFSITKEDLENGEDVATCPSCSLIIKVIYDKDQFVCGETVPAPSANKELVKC
# UniProt Q96FN9: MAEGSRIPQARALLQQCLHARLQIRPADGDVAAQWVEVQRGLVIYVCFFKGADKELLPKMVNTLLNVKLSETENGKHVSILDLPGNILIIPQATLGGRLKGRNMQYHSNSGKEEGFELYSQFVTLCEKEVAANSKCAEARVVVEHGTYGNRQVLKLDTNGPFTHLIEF
# UniProt P25685, whole entry, looked up: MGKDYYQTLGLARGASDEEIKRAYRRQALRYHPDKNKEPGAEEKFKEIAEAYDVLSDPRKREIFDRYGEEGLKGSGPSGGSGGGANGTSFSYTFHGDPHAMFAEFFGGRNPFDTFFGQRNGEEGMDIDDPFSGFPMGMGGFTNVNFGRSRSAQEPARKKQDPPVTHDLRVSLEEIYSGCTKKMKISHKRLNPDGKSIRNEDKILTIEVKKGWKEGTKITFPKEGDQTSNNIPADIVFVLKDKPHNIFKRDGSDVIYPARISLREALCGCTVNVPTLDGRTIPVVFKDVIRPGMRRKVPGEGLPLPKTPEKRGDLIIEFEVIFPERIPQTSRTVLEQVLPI
# UniProt P26358: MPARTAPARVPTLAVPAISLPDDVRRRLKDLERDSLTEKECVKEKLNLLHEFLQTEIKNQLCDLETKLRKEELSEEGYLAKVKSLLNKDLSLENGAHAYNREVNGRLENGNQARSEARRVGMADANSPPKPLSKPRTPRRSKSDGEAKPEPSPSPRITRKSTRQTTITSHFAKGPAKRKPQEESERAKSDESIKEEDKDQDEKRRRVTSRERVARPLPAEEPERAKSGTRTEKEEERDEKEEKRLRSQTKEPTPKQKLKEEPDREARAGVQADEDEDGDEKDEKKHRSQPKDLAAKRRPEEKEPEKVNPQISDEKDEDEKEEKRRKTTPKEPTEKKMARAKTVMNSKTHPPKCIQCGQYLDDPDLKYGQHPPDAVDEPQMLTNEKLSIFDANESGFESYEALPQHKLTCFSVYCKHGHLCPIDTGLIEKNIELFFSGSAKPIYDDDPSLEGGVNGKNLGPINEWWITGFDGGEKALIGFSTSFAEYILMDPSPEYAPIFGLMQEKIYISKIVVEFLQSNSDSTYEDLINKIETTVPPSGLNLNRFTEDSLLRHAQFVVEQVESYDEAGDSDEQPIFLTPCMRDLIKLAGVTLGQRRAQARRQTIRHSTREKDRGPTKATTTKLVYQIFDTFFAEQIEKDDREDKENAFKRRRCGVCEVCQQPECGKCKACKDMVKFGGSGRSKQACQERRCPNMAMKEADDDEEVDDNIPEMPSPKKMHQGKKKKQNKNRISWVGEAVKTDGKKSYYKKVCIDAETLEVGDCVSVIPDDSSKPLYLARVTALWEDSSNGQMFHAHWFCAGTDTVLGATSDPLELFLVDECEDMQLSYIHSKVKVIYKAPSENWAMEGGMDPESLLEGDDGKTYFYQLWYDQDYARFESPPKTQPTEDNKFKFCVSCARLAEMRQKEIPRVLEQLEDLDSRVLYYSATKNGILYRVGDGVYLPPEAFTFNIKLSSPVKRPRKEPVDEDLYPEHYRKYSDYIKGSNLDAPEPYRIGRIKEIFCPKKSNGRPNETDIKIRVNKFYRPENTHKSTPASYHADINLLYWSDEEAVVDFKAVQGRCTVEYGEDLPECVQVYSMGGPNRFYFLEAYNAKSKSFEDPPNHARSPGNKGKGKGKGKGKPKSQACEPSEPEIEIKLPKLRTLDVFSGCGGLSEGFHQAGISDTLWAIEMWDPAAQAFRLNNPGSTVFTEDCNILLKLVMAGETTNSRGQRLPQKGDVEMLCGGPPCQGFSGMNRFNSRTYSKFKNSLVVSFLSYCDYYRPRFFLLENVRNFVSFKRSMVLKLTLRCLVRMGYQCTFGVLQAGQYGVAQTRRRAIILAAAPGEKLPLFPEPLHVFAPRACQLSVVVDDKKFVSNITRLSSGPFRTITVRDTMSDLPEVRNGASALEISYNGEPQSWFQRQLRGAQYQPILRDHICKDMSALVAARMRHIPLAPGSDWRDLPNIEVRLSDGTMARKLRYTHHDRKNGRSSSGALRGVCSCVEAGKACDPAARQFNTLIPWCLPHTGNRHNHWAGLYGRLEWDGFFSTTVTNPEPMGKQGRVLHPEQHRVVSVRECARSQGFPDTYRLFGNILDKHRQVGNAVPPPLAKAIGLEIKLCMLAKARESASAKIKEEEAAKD
# UniProt Q8TBM8: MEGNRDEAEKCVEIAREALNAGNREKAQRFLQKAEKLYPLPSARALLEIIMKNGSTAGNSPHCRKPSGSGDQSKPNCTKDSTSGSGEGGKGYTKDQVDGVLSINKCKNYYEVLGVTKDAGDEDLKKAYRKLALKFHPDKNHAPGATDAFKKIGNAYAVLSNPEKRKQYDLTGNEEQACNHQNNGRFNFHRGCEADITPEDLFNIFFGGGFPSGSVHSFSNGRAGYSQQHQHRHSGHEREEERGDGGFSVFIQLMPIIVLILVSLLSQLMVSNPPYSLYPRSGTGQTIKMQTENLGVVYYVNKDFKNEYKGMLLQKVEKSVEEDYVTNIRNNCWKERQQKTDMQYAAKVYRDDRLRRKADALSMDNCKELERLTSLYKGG
# The other results are listed elsewhere or left out.
# Tests used:
# Test in all cases: log2 fold change, soluble protein after heating vs DMSO (PISA); higher = thermal stabilisation; K562 cells, 10 uM, 30 min; active = over 0.2 and 3.5 SD of the protein, either way, in both replicates (recomputed)
# [1] = compound: CS(=O)(=O)c1ccc(-c2cnc(N)c(C(=O)Nc3ccccc3)n2)cc1
# How it was run: (§1)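 K562 cells at 2×10^6 cells/mL were treated for 30 min with 10 μM compound, and aliquots were heated for 3 min over 48°C-58°C before pooling. Extraction used PBS with 0.5% NP-40 at 4°C, and soluble protein was the supernatant after 21,000xg for 90 min, measured by TMTpro 16plex LC-MS/MS with channel sums equalised. Thermal stability values, relative to control samples and from duplicates, are log2 fold changes.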
# [2] = compound: C[C@@H](Oc1cc(-c2cnn(C3CCNCC3)c2)cnc1N)c1c(Cl)ccc(F)c1Cl [crizotinib]
# How it was run: as §1
# [3] = compound: C[C@@H]1COCCN1C2=NC(=NC(=C2)C3(CC3)S(=O)(=O)C)C4=C5C=CNC5=CC=C4
# How it was run: as §1
# [4] = compound: C[C@H](C1=CC=C(C=C1)C(=O)NC2=C3C=CNC3=NC=C2)N
# How it was run: as §1
# [5] = compound: Cc1cc(Nc2cc(CN3CCOCC3)c3nc(C)c(Cc4ccc(Cl)cc4F)n3n2)n[nH]1 [gandotinib]
# How it was run: as §1
# [6] = compound: Cc1cc(SCc2sc(-c3ccc(C(F)(F)F)cc3)nc2C)ccc1OCC(=O)O
# How it was run: as §1
# [7] = compound: Cc1ccc(-n2nc(C(C)(C)C)cc2NC(=O)Nc2ccc(OCCN3CCOCC3)c3ccccc23)cc1 [doramapimod]
# How it was run: as §1
# [8] = compound: Cc1ccc(C(=O)N(CCCN)[C@@H](c2nc3cc(Cl)ccc3c(=O)n2Cc2ccccc2)C(C)C)cc1 [ispinesib]
# How it was run: as §1
# [9] = compound: Cc1ccc(NC(=O)c2ccc(CN3CC[C@H](N(C)C)C3)c(C(F)(F)F)c2)cc1Nc1nccc(-c2cncnc2)n1 [bafetinib]
# How it was run: as §1
# [10] = compound: Cc1cccc(CC(=O)N2CCc3c2ccc(-c2cn(C)c4ncnc(N)c24)c3F)n1
# How it was run: as §1
# [11] = compound: Cc1cn(-c2cc(NC(=O)c3ccc(C)c(Nc4nccc(-c5cccnc5)n4)c3)cc(C(F)(F)F)c2)cn1 [nilotinib]
# How it was run: as §1
# [12] = compound: Cc1nc(Nc2n[nH]c3c2CN(C(=O)N[C@H](CN(C)C)c2ccccc2)C3(C)C)c2sccc2n1
# How it was run: as §1
# [13] = compound: Cc1nc(Nc2ncc(C(=O)Nc3c(C)cccc3Cl)s2)cc(N2CCN(CCO)CC2)n1 [dasatinib]
# How it was run: as §1
# [14] = compound: Cc1ncc(-c2ccnc(Nc3ccc(S(C)(=O)=O)cc3)n2)n1C(C)C
# How it was run: as §1
# [15] = compound: Cn1cc(-c2ccc3c(c2)CCN3C(=O)Cc2cccc(C(F)(F)F)c2)c2c(N)ncnc21
# How it was run: as §1
# [16] = compound: Cn1cc(-c2ccc3nnc(C(F)(F)c4ccc5ncccc5c4)n3n2)cn1
# How it was run: as §1
# [17] = compound: Cn1cncc1[C@@](N)(c1ccc(Cl)cc1)c1ccc2c(c1)c(-c1cccc(Cl)c1)cc(=O)n2C [tipifarnib]
# How it was run: as §1
# [18] = compound: FC(F)(F)c1ccc(/C=C/c2nc(COc3ccc(CCCCn4ccnn4)cc3)co2)cc1 [mubritinib]
# How it was run: as §1
# [19] = compound: Cc1cc(Nc2cc(N3CCN(C)CC3)nc(Sc3ccc(NC(=O)C4CC4)cc3)n2)n[nH]1 [tozasertib]
# How it was run: as §1
# [20] = compound: C[C@H](Nc1ncnc2nc[nH]c12)c1cc2cccc(Cl)c2c(=O)n1-c1ccccc1 [duvelisib]
# How it was run: as §1
Target,log2 fold change [1],log2 fold change [2],log2 fold change [3],log2 fold change [4],log2 fold change [5],log2 fold change [6],log2 fold change [7],log2 fold change [8],log2 fold change [9],log2 fold change [10],log2 fold change [11],log2 fold change [12],log2 fold change [13],log2 fold change [14],log2 fold change [15],log2 fold change [16],log2 fold change [17],log2 fold change [18],log2 fold change [19],log2 fold change [20]
ECPAS (UniProt Q5VYK3),inactive: 0,inactive: -0.18,inactive: 0.01,inactive: 0.081,inactive: -0.115,inactive: 0.099,inactive: -0.032,inactive: -0.016,inactive: 0.031,inactive: 0.105,inactive: -0.067,inactive: -0.038,active: -0.255,inactive: 0.077,inactive: -0.011,inactive: -0.043,inactive: -0.202,inactive: 0.021,,
DNM2 (UniProt P50570),inactive: 0.017,inactive: -0.082,inactive: 0.062,inactive: -0.021,inactive: -0.06,inactive: 0.039,inactive: -0.039,inactive: -0.01,inactive: -0.035,inactive: 0,inactive: -0.054,inactive: -0.003,inactive: -0.099,inactive: 0,inactive: 0.075,inactive: 0.007,inactive: -0.071,inactive: 0.017,,
ECH1 (UniProt Q13011),inactive: 0.025,inactive: -0.086,inactive: 0.068,inactive: -0.011,inactive: -0.195,inactive: -0.008,inactive: -0.023,inactive: -0.208,inactive: 0.318,inactive: -0.003,inactive: -0.024,inactive: 0.013,inactive: 0.249,inactive: -0.033,inactive: 0.134,inactive: 0.039,inactive: -0.056,inactive: -0.011,active: 0.434,
DNM1L isoform 6 (UniProt O00429),inactive: 0.041,inactive: -0.034,inactive: 0.126,inactive: -0.025,inactive: 0.006,inactive: 0,inactive: 0.001,inactive: -0.042,inactive: -0.076,inactive: -0.023,inactive: -0.084,inactive: -0.017,inactive: -0.055,inactive: 0.045,inactive: 0.05,inactive: 0.032,inactive: -0.038,inactive: -0.001,inactive: -0.031,inactive: 0.085
DPM3 isoform 2 (UniProt Q9P2X0),inactive: 0.115,inactive: -0.157,inactive: 0.16,inactive: -0.084,,inactive: -0.026,inactive: 0.07,inactive: -0.011,inactive: -0.101,,inactive: 0.061,inactive: 0.044,inactive: -0.086,inactive: -0.055,inactive: 0.125,inactive: 0.09,inactive: 0.061,inactive: 0.071,inactive: -0.051,inactive: 0.229
DPP8 (UniProt Q6V1X1),inactive: 0.04,inactive: -0.003,inactive: 0.011,inactive: -0.048,inactive: -0.038,inactive: 0.006,inactive: 0.008,inactive: 0.019,inactive: -0.054,inactive: -0.035,inactive: 0.027,inactive: -0.019,inactive: 0.014,inactive: -0.001,inactive: 0.048,inactive: 0.054,inactive: 0.065,inactive: 0.036,,
DUS3L (UniProt Q96G46),inactive: -0.015,inactive: 0.112,inactive: 0.019,inactive: -0.075,inactive: -0.027,inactive: 0.022,inactive: 0.033,inactive: 0,inactive: -0.041,inactive: -0.02,inactive: -0.073,inactive: -0.059,inactive: -0.005,inactive: 0.021,inactive: -0.064,inactive: -0.017,inactive: 0.053,inactive: -0.115,,
DTNBP1 (UniProt Q96EV8),inactive: 0.093,inactive: 0,inactive: 0.079,inactive: -0.014,inactive: -0.104,inactive: 0.022,inactive: -0.009,inactive: -0.073,inactive: 0.014,inactive: 0.004,inactive: -0.047,inactive: -0.027,inactive: 0.072,inactive: 0.016,inactive: 0.053,inactive: 0.036,inactive: -0.083,inactive: -0.081,,
DNAJB12 (UniProt Q9NXW2),inactive: 0.02,inactive: -0.029,inactive: 0.038,inactive: 0.035,inactive: -0.073,inactive: 0.097,inactive: -0.034,active: -0.227,inactive: -0.057,inactive: 0.007,inactive: -0.158,inactive: 0.041,inactive: -0.068,inactive: 0.015,inactive: -0.04,inactive: -0.039,inactive: 0.016,inactive: 0.01,,
DYRK1A isoform 2 (UniProt Q13627),inactive: 0.008,inactive: -0.181,inactive: 0.045,inactive: -0.107,inactive: -0.102,inactive: 0.042,inactive: 0.014,inactive: -0.059,inactive: -0.073,inactive: 0.02,inactive: -0.005,inactive: -0.056,inactive: -0.098,inactive: -0.047,inactive: 0.021,inactive: -0.046,inactive: -0.042,inactive: 0.034,,
DTYMK (UniProt P23919),inactive: 0.046,inactive: -0.146,inactive: 0,inactive: -0.022,inactive: -0.217,inactive: -0.009,inactive: -0.025,inactive: 0.032,inactive: 0.044,inactive: 0.007,inactive: 0.042,inactive: 0.041,inactive: -0.151,inactive: -0.029,inactive: 0.045,inactive: 0.002,inactive: -0.019,inactive: 0.078,,
DPH3 (UniProt Q96FX2),inactive: -0.144,inactive: 0.089,inactive: -0.05,inactive: 0,inactive: 0.054,inactive: -0.306,inactive: -0.104,,inactive: 0.195,inactive: -0.04,inactive: 0.099,inactive: 0.038,inactive: 0.014,inactive: -0.014,inactive: -0.015,,inactive: -0.025,inactive: -0.079,inactive: -0.148,inactive: 0.139
DTD2 (UniProt Q96FN9),inactive: 0.183,inactive: 0.022,inactive: -0.095,inactive: -0.05,inactive: 0.092,inactive: -0.03,inactive: 0.057,,,inactive: -0.194,inactive: 0.028,inactive: -0.103,inactive: -0.024,inactive: -0.002,inactive: 0.034,,inactive: 0.267,,inactive: -0.002,inactive: 0.052
DNAJB1 (UniProt P25685),inactive: -0.004,inactive: -0.004,inactive: 0.084,inactive: 0,inactive: -0.041,inactive: 0.059,inactive: -0.018,inactive: 0.019,inactive: -0.026,inactive: 0.013,inactive: -0.042,inactive: -0.058,inactive: -0.064,inactive: 0.026,inactive: 0.035,inactive: 0.02,inactive: -0.026,inactive: 0.01,,
DNMT1 isoform 2 (UniProt P26358),inactive: 0.023,inactive: 0.078,inactive: 0.021,inactive: -0.056,inactive: -0.022,inactive: 0.013,inactive: -0.014,inactive: 0.097,inactive: -0.008,inactive: 0.016,inactive: 0.002,inactive: 0.002,inactive: -0.01,inactive: 0.005,inactive: 0.036,inactive: -0.004,inactive: -0.009,inactive: 0.007,inactive: 0.019,inactive: 0.014
DNPEP (UniProt Q9ULA0),inactive: -0.011,inactive: 0.007,inactive: 0.029,inactive: -0.013,inactive: 0.014,inactive: -0.02,inactive: 0.006,inactive: 0.021,inactive: 0.003,inactive: 0.017,inactive: 0,inactive: 0.02,inactive: 0.016,inactive: 0.001,inactive: 0.019,inactive: 0.027,inactive: -0.026,inactive: 0.025,inactive: -0.039,inactive: 0.039
DNAJB14 (UniProt Q8TBM8),inactive: -0.017,inactive: -0.037,inactive: -0.012,inactive: -0.013,inactive: -0.071,,inactive: -0.017,inactive: -0.083,inactive: -0.095,inactive: 0.077,inactive: -0.02,inactive: 0.003,,inactive: 0.07,inactive: 0.041,inactive: -0.013,inactive: -0.143,inactive: 0.146,inactive: -0.002,

# Taken from above:
# ECPAS (UniProt Q5VYK3) – log2 fold change [8]: inactive: -0.016
# DPP8 (UniProt Q6V1X1) – log2 fold change [8]: inactive: 0.019
